Laboratory results as given in paper PMC8844120.
Results are given in words; binding and its absence hold for the method and conditions named. In cells and extracts the contact can be indirect. Some binding calls cover weakened binding; strength is not graded here. Sequences can lack the tags named with a protein.

Target: T1, FLAG-Sirt1 (from pCDH-FLAG-Sirt1) (UniProt Q923E4)
T1 sequence: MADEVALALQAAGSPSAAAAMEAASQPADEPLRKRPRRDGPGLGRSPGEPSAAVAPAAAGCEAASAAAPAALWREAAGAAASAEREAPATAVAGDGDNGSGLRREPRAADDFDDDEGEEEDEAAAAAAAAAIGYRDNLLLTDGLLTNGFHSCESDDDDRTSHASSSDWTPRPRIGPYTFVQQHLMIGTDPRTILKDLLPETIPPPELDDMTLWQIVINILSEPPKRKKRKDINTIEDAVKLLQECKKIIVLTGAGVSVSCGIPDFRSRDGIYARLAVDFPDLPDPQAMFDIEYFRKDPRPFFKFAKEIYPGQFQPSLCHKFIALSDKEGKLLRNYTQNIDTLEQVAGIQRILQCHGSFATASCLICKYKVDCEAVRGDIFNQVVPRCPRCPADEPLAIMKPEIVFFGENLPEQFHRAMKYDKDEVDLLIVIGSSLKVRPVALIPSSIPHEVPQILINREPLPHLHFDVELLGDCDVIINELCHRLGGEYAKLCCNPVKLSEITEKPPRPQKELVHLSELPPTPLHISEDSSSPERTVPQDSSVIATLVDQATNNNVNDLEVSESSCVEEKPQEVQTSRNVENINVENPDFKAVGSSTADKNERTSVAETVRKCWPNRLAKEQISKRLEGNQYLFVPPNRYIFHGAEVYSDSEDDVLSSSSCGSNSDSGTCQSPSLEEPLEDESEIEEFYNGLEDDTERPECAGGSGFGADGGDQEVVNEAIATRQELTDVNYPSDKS
Experiment: co-IP; lysates of C3H10T1/2 cells infected with lentivirus (72 h for NAP1L2-FLAG); procedure as in a cited paper; which protein was precipitated is not told

B1: NAP1L2 (nucleosome assembly protein 1-like 2), endogenous (protein, UniProt P51860 1-460)
chain: MAESVDHKELSESNQEELGSQVMAEGPGESQDRSEGVSIEPGDGGQHGEETVAAGVGEEGKGEEAAAGSGEDAGKCGGTDEDSDSDRPKGLIGYLLDTDFVESLPVKVKCRVLALKKLQTRAAHLESKFLREFHDIERKFAEMYQPLLEKRRQIINAVYEPTEEECEYKSDCEDYFEEEMDEEEETNGNEDGMVHEYVDEDDGYEDCYYDYDDEEEEEEEDDSAGATGGEEVNEEDPKGIPDFWLTVLKNVEALTPMIKKYDEPILKLLTDIKVKLSDPGEPLSFTLEFHFKPNEYFKNELLTKTYVLKSKLACYDPHPYRGTAIEYATGCDIDWNEGKNVTLRTIKKKQRHRVWGTVRTVTEDFPKDSFFNFFSPHGISLNGGDENDDFLLGHNLRTYIIPRSVLFFSGDALESQQEGVVREVNDEIYDKIIYDDWMAAIEEVKACCKNLEALVEDIDR
binding: binds
